Laboratory results from publication doi:10.1101/2025.03.10.641328.

The chains behind the UniProt entries cited, without tags or fusion partners.
UniProt Q9UNE7: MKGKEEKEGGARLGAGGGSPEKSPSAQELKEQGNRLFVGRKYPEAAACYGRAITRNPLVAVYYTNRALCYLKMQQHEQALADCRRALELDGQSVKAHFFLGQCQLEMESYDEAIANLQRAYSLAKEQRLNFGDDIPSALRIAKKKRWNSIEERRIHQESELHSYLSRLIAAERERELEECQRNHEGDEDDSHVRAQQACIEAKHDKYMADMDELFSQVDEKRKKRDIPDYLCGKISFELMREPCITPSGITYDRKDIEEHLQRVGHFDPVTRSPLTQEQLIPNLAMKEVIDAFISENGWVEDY
UniProt O95816: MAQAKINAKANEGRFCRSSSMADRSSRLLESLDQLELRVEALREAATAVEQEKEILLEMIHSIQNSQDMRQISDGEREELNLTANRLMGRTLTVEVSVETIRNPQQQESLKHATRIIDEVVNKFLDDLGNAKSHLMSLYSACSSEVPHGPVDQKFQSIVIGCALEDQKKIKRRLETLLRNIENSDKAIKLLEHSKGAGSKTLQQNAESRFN
UniProt Q9UNN5: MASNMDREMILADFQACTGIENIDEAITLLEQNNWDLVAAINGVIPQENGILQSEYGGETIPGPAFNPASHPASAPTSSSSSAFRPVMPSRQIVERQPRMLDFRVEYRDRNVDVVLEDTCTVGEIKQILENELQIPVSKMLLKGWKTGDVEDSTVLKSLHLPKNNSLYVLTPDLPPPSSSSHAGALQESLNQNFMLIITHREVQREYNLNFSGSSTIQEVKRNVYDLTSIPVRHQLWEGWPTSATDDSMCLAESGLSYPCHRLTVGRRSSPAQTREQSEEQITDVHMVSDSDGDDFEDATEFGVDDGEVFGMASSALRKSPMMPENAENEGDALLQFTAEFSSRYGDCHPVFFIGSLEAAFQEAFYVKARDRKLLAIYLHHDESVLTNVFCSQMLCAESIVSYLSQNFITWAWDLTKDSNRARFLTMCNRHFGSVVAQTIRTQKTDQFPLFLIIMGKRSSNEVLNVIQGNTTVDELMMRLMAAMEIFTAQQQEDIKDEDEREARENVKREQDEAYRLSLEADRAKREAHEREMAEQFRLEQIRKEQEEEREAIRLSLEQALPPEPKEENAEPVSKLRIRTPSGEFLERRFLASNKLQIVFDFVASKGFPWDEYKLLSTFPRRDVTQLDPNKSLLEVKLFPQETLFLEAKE
UniProt P61081: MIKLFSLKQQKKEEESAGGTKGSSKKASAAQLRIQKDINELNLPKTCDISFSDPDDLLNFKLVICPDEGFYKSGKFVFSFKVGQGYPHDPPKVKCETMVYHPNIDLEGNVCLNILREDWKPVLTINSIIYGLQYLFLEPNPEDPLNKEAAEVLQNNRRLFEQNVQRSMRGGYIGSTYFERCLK

T1: GFP-tagged gigaxonin Kelch 3 deletion mutant (human) (UniProt Q9H2C0)
T1 sequence: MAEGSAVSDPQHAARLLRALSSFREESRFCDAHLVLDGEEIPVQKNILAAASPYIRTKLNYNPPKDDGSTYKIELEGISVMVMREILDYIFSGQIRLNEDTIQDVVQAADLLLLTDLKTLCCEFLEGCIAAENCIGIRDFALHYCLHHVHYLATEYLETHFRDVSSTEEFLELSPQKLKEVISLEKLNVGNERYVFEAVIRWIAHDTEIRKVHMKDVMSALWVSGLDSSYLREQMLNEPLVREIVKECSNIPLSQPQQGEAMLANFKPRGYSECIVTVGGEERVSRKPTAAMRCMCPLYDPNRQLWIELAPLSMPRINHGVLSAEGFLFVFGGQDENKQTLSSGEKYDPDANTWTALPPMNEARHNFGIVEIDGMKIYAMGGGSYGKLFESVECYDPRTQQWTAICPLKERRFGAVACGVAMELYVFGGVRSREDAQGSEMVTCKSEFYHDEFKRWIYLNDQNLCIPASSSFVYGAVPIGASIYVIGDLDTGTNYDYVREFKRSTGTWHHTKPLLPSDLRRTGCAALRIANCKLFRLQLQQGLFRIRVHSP


molecular target: T1, GFP-tagged gigaxonin Kelch 3 deletion mutant (human); assay: affinity purification with mass spectrometry; GFP-tagged gigaxonin captured on TurboGFP-Trap magnetic agarose beads from Triton X-100 soluble lysate of transfected cells, overnight at 4°C; on-bead tryptic digestion, LC-MS/MS, MaxQuant and Perseus

| Molecule | binding |
| --- | --- |
| STUB1 (from UniProt Q9UNE7 1-303) | binds |
| BAG2 (from UniProt O95816 1-211) | binds |
| FAF1 (from UniProt Q9UNN5 1-650) | binds |
| UBAC2 (protein, UniProt Q8NBM4 36-344) HCQKLFVYDLHAVKNDFQIWRLICGRIICLDLKDTFCSSLLIYNFRIFERRYGSRKFASFLLGSWVLSALFDFLLIEAMQYFFGITAASNLPSGFLAPVFALFVPFYCSIPRVQVAQILGPLSITNKTLIYILGLQLFTSGSYIWIVAISGLMSGLCYDSKMFQVHQVLCIPSWMAKFFSWTLEPIFSSSEPTSEARIGMGATLDIQRQQRMELLDRQLMFSQFAQGRRQRQQQGGMINWNRLFPPLRQRQNVNYQGGRQSEPAAPPLEVSEEQVARLMEMGFSRGDALEALRASNNDLNVATNFLLQH | binds |
| TRIM38 (protein, UniProt O00635 1-465) MASTTSTKKMMEEATCSICLSLMTNPVSINCGHSYCHLCITDFFKNPSQKQLRQETFCCPQCRAPFHMDSLRPNKQLGSLIEALKETDQEMSCEEHGEQFHLFCEDEGQLICWRCERAPQHKGHTTALVEDVCQGYKEKLQKAVTKLKQLEDRCTEQKLSTAMRITKWKEKVQIQRQKIRSDFKNLQCFLHEEEKSYLWRLEKEEQQTLSRLRDYEAGLGLKSNELKSHILELEEKCQGSAQKLLQNVNDTLSRSWAVKLETSEAVSLELHTMCNVSKLYFDVKKMLRSHQVSVTLDPDTAHHELILSEDRRQVTRGYTQENQDTSSRRFTAFPCVLGCEGFTSGRRYFEVDVGEGTGWDLGVCMENVQRGTGMKQEPQSGFWTLRLCKKKGYVALTSPPTSLHLHEQPLLVGIFLDYEAGVVSFYNGNTGCHIFTFPKASFSDTLRPYFQVYQYSPLFLPPPGD | binds |
| NudC domain-containing protein 3 (protein, UniProt Q8IVD9 1-361) METGAAELYDQALLGILQHVGNVQDFLRVLFGFLYRKTDFYRLLRHPSDRMGFPPGAAQALVLQVFKTFDHMARQDDEKRRQELEEKIRRKEEEEAKTVSAAAAEKEPVPVPVQEIEIDSTTELDGHQEVEKVQPPGPVKEMAHGSQEAEAPGAVAGAAEVPREPPILPRIQEQFQKNPDSYNGAVRENYTWSQDYTDLEVRVPVPKHVVKGKQVSVALSSSSIRVAMLEENGERVLMEGKLTHKINTESSLWSLEPGKCVLVNLSKVGEYWWNAILEGEEPIDIDKINKERSMATVDEEEQAVLDRLTFDYHQKLQGKPQSHELKVHEMLKKGWDAEGSPFRGQRFDPAMFNISPGAVQF | no binding |
| NME3 (protein, UniProt Q13232 1-169) MICLVLTIFANLFPAACTGAHERTFLAVKPDGVQRRLVGEIVRRFERKGFKLVALKLVQASEELLREHYAELRERPFYGRLVKYMASGPVVAMVWQGLDVVRTSRALIGATNPADAPPGTIRGDFCIEVGKNLIHGSDSVESARREIALWFRADELLCWEDSAGHWLYE | binds |

Results, then the molecule that gave them:

| binding | Molecule |
| --- | --- |
| binds | UBE2M (from UniProt P61081 1-183) |
| binds | UBE2J1 (protein, UniProt Q9Y385 1-318) METRYNLKSPAVKRLMKEAAELKDPTDHYHAQPLEDNLFEWHFTVRGPPDSDFDGGVYHGRIVLPPEYPMKPPSIILLTANGRFEVGKKICLSISGHHPETWQPSWSIRTALLAIIGFMPTKGEGAIGSLDYTPEERRALAKKSQDFCCEGCGSAMKDVLLPLKSGSDSSQADQEAKELARQISFKAEVNSSGKTISESDLNHSFSLTDLQDDIPTTFQGATASTSYGLQNSSAASFHQPTQPVAKNTSMSPRQRRAQQQSQRRLSTSPDVIQGHQPRDNHTDHGGSAVLIVILTLALAALIFRRIYLANEYIFDFEL |
| binds | VCPIP1 (protein, UniProt Q96JH7 1-1222) MSQPPPPPPPLPPPPPPPEAPQTPSSLASAAASGGLLKRRDRRILSGSCPDPKCQARLFFPASGSVSIECTECGQRHEQQQLLGVEEVTDPDVVLHNLLRNALLGVTGAPKKNTELVKVMGLSNYHCKLLSPILARYGMDKQTGRAKLLRDMNQGELFDCALLGDRAFLIEPEHVNTVGYGKDRSGSLLYLHDTLEDIKRANKSQECLIPVHVDGDGHCLVHAVSRALVGRELFWHALRENLKQHFQQHLARYQALFHDFIDAAEWEDIINECDPLFVPPEGVPLGLRNIHIFGLANVLHRPIILLDSLSGMRSSGDYSATFLPGLIPAEKCTGKDGHLNKPICIAWSSSGRNHYIPLVGIKGAALPKLPMNLLPKAWGVPQDLIKKYIKLEEDGGCVIGGDRSLQDKYLLRLVAAMEEVFMDKHGIHPSLVADVHQYFYRRTGVIGVQPEEVTAAAKKAVMDNRLHKCLLCGALSELHVPPEWLAPGGKLYNLAKSTHGQLRTDKNYSFPLNNLVCSYDSVKDVLVPDYGMSNLTACNWCHGTSVRKVRGDGSIVYLDGDRTNSRSTGGKCGCGFKHFWDGKEYDNLPEAFPITLEWGGRVVRETVYWFQYESDSSLNSNVYDVAMKLVTKHFPGEFGSEILVQKVVHTILHQTAKKNPDDYTPVNIDGAHAQRVGDVQGQESESQLPTKIILTGQKTKTLHKEELNMSKTERTIQQNITEQASVMQKRKTEKLKQEQKGQPRTVSPSTIRDGPSSAPATPTKAPYSPTTSKEKKIRITTNDGRQSMVTLKSSTTFFELQESIAREFNIPPYLQCIRYGFPPKELMPPQAGMEKEPVPLQHGDRITIEILKSKAEGGQSAAAHSAHTVKQEDIAVTGKLSSKELQEQAEKEMYSLCLLATLMGEDVWSYAKGLPHMFQQGGVFYSIMKKTMGMADGKHCTFPHLPGKTFVYNASEDRLELCVDAAGHFPIGPDVEDLVKEAVSQVRAEATTRSRESSPSHGLLKLGSGGVVKKKSEQLHNVTAFQGKGHSLGTASGNPHLDPRARETSVVRKHNTGTDFSNSSTKTEPSVFTASSSNSELIRIAPGVVTMRDGRQLDPDLVEAQRKKLQEMVSSIQASMDRHLRDQSTEQSPSDLPQRKTEVVSSSAKSGSLQTGLPESFPLTGGTENLNTETTDGCVADALGAAFATRSKAQRGNSVEELEEMDSQDAEMTNTTEPMDHS |

These are yes or no findings as the source states them, for the method shown. Binding seen in cells or lysates may run through a third protein. Here binding means that the protein was enriched with, or labelled near, the bait; the list need not be complete. No binding means not detected with the bait. Sequences can lack the tags named with a protein.
